# Assay results published in PubChem BioAssay AID2685 (National Center for Advancing Translational Sciences (NCATS), 2010).
# Screen size: about 320,000 compounds; about 2,100 (0.66%) were called active. The shares of active, inactive and inconclusive entries below differ from those in the screen. The call rests on the fitted dose curve; in most records, active means well fitted inhibition curve with a large enough effect in the signal ratio, with a control signal flat (not every such curve was filed as active); inconclusive means small, poorly fitted or top-dose-only effect, or effect the other way, or a change in a side signal; inactive means flat fitted curve, though single readings scatter; the % refers to the signal ratio. Potencies beside an inconclusive call are fits to weak or partial responses and may not hold up.
# Experiment: qHTS Assay for Lipid Storage Modulators in Drosophila S3 Cells
# Conditions: BODIPY lipid droplet fluorescence, 18-24 h, cells fed with added oleic acid; lipid storage change, negative = inhibition: at 46.1 µM (top of the series) unless noted
# Summary of the method: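 Drosophila S3 cells loaded with oleic acid (400 uM, as added) and compounds at several concentrations; lipid droplets imaged by 488-nm laser-scanning cytometry, 500–530 nm intensity and object ratio to cell channel. Percent activity normalized to 20 uM Triacsin C.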
# On the % scale 0 is the no-effect control and ±100 the full control effect; potency means the concentration at half of the fitted maximal effect.
Structure (SMILES),Potency,"lipid storage change, negative = inhibition"
COc1cccc(C(=O)Nc2nnc(-c3ccccc3)s2)c1OC,"inconclusive: 2.31 µM [falling, full curve, poor fit]",–
O=C(CCC(=O)OCC(=O)c1ccccc1)NC1CCCCC1,"inconclusive: 23.1 µM [falling, single point]",–
CC(C)CCNC(=O)CN(C(=O)Cn1nnc(-c2ccc(F)cc2)n1)C1CCCC1,"inconclusive: 0.82 µM [falling, full curve]",–
CCCCCCCCCCCCS[C@H]1CS(=O)(=O)C[C@@H]1O,–,inactive: -11.5%
COc1cc2cnc(-c3ccccc3)c(-c3ccc(C(F)(F)F)cc3)c2cc1OC,–,inconclusive: -27.1%
O=C(/C=C/c1ccc(OC(F)F)cc1)OCC(=O)N1CCN(C(=O)c2ccco2)CC1,–,inconclusive: -11.4%
CC1(CCBr)C(=O)N(c2ccccc2)c2ccccc21 (stereo not drawn),"inconclusive: 0.58 µM [activator, single point]",–
COc1cc2cc(CCOC(=O)CCCC(=O)O)oc(=O)c2cc1OC,–,inconclusive: 1.24%
CC(NC(=O)COC(=O)c1cc([N+](=O)[O-])ccc1N1CCOCC1)c1ccccc1 (stereo not drawn),–,inconclusive: -100%
Cc1ccc(-c2c(C(=O)N/N=C/c3ccc(C)o3)nnn2-c2nonc2N)cc1,active: 2.06 µM,–
C/C(=C\C(=O)c1ccc(F)cc1)NCc1ccc2c(c1)OCO2,"inconclusive: 29.1 µM [falling, single point]",–
COc1ccc(N(CC(=O)NCc2ccccc2)C(=O)CCC(=O)Nc2cc(C)ccn2)c(OC)c1,"inconclusive: 0.103 µM [activator, full curve, poor fit]",–
CCOC(=O)C1(Cc2ccccc2C)CCCN(C(=O)c2ccc(CSC)o2)C1 (stereo not drawn),–,inconclusive: -13.4%
CN(c1ccccc1)S(=O)(=O)c1cccc(NC(=O)COc2ccccc2)c1,–,inconclusive: -10.1%
COc1ccc(S(=O)(=O)NC2CC2)cc1Cl,–,inconclusive: -6.62%
CCN(CC)CCn1c2c(c(SCC(=O)Nc3ccc(C(C)C)cc3)nc1=O)CCC2,–,inconclusive: 8.39%
O=C(O)CSC1CC(=O)N(c2ccc(Cl)cc2)C1=O (stereo not drawn),"inconclusive: 1.84 µM [falling, partial curve, poor fit]",–
COc1ccc(/C=C2\N=C3CCCCCN3C2=O)cc1OC,–,inactive: 23.1%
Cc1ccc(CNC(=O)C(=O)NCC2OCCN2S(=O)(=O)c2ccc(Br)cc2)cc1 (stereo not drawn),"inconclusive: 1.64 µM [falling, partial curve, poor fit]",–
Cc1nc2ccccn2c1C(=O)NCc1cccnc1,–,inconclusive: 13.9%
O=C1CC(c2ccco2)CC(O)=C1C=Nc1ccc(Br)cc1 (stereo not drawn),"inconclusive: 0.58 µM [falling, single point]",–
COC(=O)Cn1c(-c2ccc(OC)cc2)c(-c2ccc(OC)cc2)nnc1=O,"inconclusive: 2.31 µM [falling, full curve]",–
O=C(NCc1cccc(C(F)(F)F)c1)C1CC(c2ccccc2C(F)(F)F)=NO1 (stereo not drawn),–,inconclusive: 19.2%
CCOC(=O)CSCc1cn2cc(Cl)ccc2n1,"inconclusive: 0.058 µM [falling, full curve, poor fit]",–
Cc1ccc(NS(=O)(=O)c2ccc(N3C(=O)CCC3=O)cc2)cc1,–,inconclusive: -0.0479%
Cc1ccc(NC(=O)C/C(N)=N/O)cc1C,"inconclusive: 23.1 µM [rising, single point]",–

# Individual results from the list.
# lipid storage change, negative = inhibition with `CC(NC(=O)COC(=O)c1cc([N+](=O)[O-])ccc1N1CCOCC1)c1ccccc1` (stereo not drawn) reads inconclusive: -100%
# Potency with `C/C(=C\C(=O)c1ccc(F)cc1)NCc1ccc2c(c1)OCO2` reads inconclusive: 29.1 µM [falling, single point]
# Potency with `COc1cccc(C(=O)Nc2nnc(-c3ccccc3)s2)c1OC` reads inconclusive: 2.31 µM [falling, full curve, poor fit]
# Potency with `CC(C)CCNC(=O)CN(C(=O)Cn1nnc(-c2ccc(F)cc2)n1)C1CCCC1` reads inconclusive: 0.82 µM [falling, full curve]
# Potency with `Cc1ccc(NC(=O)C/C(N)=N/O)cc1C` reads inconclusive: 23.1 µM [rising, single point]

# Continuation.

Structure (SMILES),Potency,"lipid storage change, negative = inhibition"
COc1ccc(CCNC(=O)CS(=O)(=O)Cc2nc(-c3ccccc3Cl)oc2C)cc1OC,–,inconclusive: -10.7%
COc1cccc(CN2CC(C(=O)NCCSc3nnnn3C)CCC2=O)c1 (stereo not drawn),–,inconclusive: 5.3%
CC1CCCCN1S(=O)(=O)c1cccc2cccnc12 (stereo not drawn),–,inconclusive: 6.47% [at 9.22 µM]
CCCn1cc(S(=O)(=O)c2ccccc2)c(=O)c2cc(OC)c(OC)cc21,–,inconclusive: 14.7%
CN(CC(=O)Nc1ccc(F)cc1)CC(=O)Nc1ccc(F)c(F)c1F,–,inconclusive: 11.9%
COc1ccc(C(=O)OCC(=O)c2ccc(Br)s2)c(OC)c1,"inconclusive: 2.59 µM [rising, single point]",–
O=C(O)CCCNS(=O)(=O)c1ccccc1,–,inconclusive: -0.105%
O=C(O)[C@H](Cc1ccccc1)N1C(=O)c2ccncc2C1=O,–,inconclusive: 15.7%
COc1ccccc1N(CC(O)CN(c1ccccc1)S(C)(=O)=O)S(=O)(=O)c1ccccc1 (stereo not drawn),–,inconclusive: 4.57%
CC(=O)c1cccc(OCc2cc(C(=O)NC3CCN(Cc4ccccc4)CC3)no2)c1,–,inconclusive: -105%
CC(=O)c1cc2c(cc1NC(=O)CSc1nc3ccccc3o1)OCO2,"inconclusive: 1.3 µM [activator, partial curve]",–
Cc1cc(OCC(=O)NNC(=O)CCc2ccccc2)ccc1Br,–,inconclusive: -46.9%
CC1CN(C(=O)c2cc(-c3ccc(Cl)s3)nc3ccccc23)CC(C)O1 (stereo not drawn),"inconclusive: 29.1 µM [falling, single point]",–
N#CCN1C(=O)C2CCCN2c2ccc(S(=O)(=O)N3CCOCC3)cc21 (stereo not drawn),–,inconclusive: 7.64%
CCCCC1C2C(=O)N(c3ccc(C)cc3)C(=O)C2ON1c1ccccc1 (stereo not drawn),–,inactive: 0.528%
COc1cc(NC(=O)CSc2ccc3c(c2)OCCO3)cc(OC)c1OC,–,inconclusive: -45.5%
Cc1nn(CCCC(=O)NCCc2ccc(Cl)cc2)c(=O)c2nn(-c3ccccc3)c(C)c12,–,inconclusive: 31.8%
COc1ccc(S(=O)(=O)N2CCC(C(N)=O)(N3CCCCC3)CC2)cc1OC,"inconclusive: 29.1 µM [activator, partial curve, poor fit]",–
O=C1C2C(c3cccc(/C=C/c4ccccc4)c3)CC=CC2C(c2ccc(C(F)(F)F)cc2)N1Cc1ccccc1 (stereo not drawn),–,inactive: 9.24%
O=C(N/N=C\c1c(O)ccc2ccccc12)c1ccc(O)cc1,"inconclusive: 2.91 µM [falling, single point]",–
O=C1CCC(C(=O)N2CCCC2)CN1Cc1cccc(C(F)(F)F)c1 (stereo not drawn),–,inconclusive: -100%
Cc1ccc(S(=O)(=O)NCCC(=O)OCC(=O)Nc2cccc(Cl)c2)cc1,–,inconclusive: 21%
CC1CN(C(=O)c2ccc(CNS(=O)(=O)c3cccc(Cl)c3)cc2)CC(C)O1 (stereo not drawn),"inconclusive: 23.1 µM [falling, single point]",–
COCCN1CC(C(=O)NCc2ncccc2C)CCC1=O (stereo not drawn),–,inconclusive: -5.88%
COc1ccc(CNC(=O)c2ccc(CS(=O)Cc3ccc(Cl)cc3)o2)cc1 (stereo not drawn),–,inconclusive: -64.1%
CCOC(=O)N1CCN(C(=O)c2ccc3nc(SCc4ccc(F)cc4)n(C)c3c2)CC1,–,inconclusive: -6.98%

Structure (SMILES),Potency,"lipid storage change, negative = inhibition"
O=C(NCCc1c[nH]c2ccccc12)c1ccco1,–,inconclusive: 11.4%
Cc1ccc2cc(CN(CCc3ccccc3)C(=S)NCCCN(C)C)c(=O)[nH]c2c1,–,inconclusive: 11.2%
OC(COc1ccccc1)CN1CCOCC1 (stereo not drawn),–,inactive: 0.356%
Cc1ccccc1Nc1nc(N)nc(COC(=O)c2ccc([N+](=O)[O-])o2)n1,–,inconclusive: 10.6%
Cc1cc(C)nc(-n2cc(C(=O)c3cc(F)ccc3O)cn2)n1,"inconclusive: 10.3 µM [activator, partial curve, poor fit]",–
COc1ccccc1N1CCN(CC(C)N(C(=O)C2CCCCC2)c2ccccn2)CC1 (stereo not drawn),–,inactive: 12.2%
Cn1c(N)c(C(=O)COC(=O)/C=C/c2cccc(F)c2)c(=O)n(C)c1=O,"inconclusive: 2.06 µM [falling, partial curve]",–
CN(C)C(CNc1ccc(C(F)(F)F)cc1[N+](=O)[O-])c1ccccc1 (stereo not drawn),"inconclusive: 20.6 µM [activator, partial curve]",–
CCc1nc(-c2ccc(OC)c(OC)c2)cc2cc(OC)c(OC)cc12,–,inconclusive: 12.3%
COc1cc(C(=O)N2CCN(C(=O)C3CC3)CC2)cc(OC)c1OC,active: 14.6 µM,–
Cn1c(=O)c2c(nc(NC(Cc3ccccc3)C(=O)O)n2Cc2ccccc2)n(C)c1=O (stereo not drawn),–,inconclusive: 41.5%
COC(=O)c1c(NC(=O)c2ccco2)sc2c1CCN(C(C)=O)C2,active: 7.31 µM,–
O=C(Cc1ccc(F)cc1)Nc1cccc(-c2cn3c(n2)SCC3)c1,–,inconclusive: -2.39%
COc1ccc(C)cc1NC(=O)C1CCN(S(=O)(=O)c2cccc3cccnc23)CC1,active: 10.3 µM,–
O=C(Nc1nccs1)C1CC(=O)N(CCc2ccc(F)cc2)C1 (stereo not drawn),–,inconclusive: -59.2%
CCN1c2ccccc2S(=O)(=O)c2ccccc21,active: 1.84 µM,–
Cc1cccc(-c2nnc(SCC(=O)Nc3cc(C)on3)n2C)c1,–,inconclusive: -11.7%
C=CCn1c(SCn2nnc3ccccc3c2=O)nnc1-c1ccc(Br)cc1,"inconclusive: 0.517 µM [activator, full curve]",–
COc1cc([N+](=O)[O-])ccc1NC(=S)NNC(=O)c1ccc2c(c1)OCO2,"inconclusive: 0.259 µM [activator, full curve, poor fit]",–
O=c1c(O)c(-c2ccc3c(c2)OCO3)oc2ccccc12,–,inconclusive: 21.3%
CCCCn1c(=N)n(CC(=O)C(C)(C)C)c2ccccc21,–,inconclusive: 14.9%
CCOC(=O)C1CC(c2ccccc2)=NNC1=O (stereo not drawn),–,inconclusive: 12.8%
COc1ccc(C(=O)COC(=O)c2ccc(Cl)nc2)cc1OC,–,inconclusive
CNc1nc2c(c(=O)[nH]c(=O)n2C)n1CCOC,–,inconclusive: -3.61%
CCOc1ccc(C(C)=O)cc1COC(=O)CNC(=O)c1cccs1,–,inconclusive: 20%
CCOc1ccc(NC(=O)N(CCCN2CCOCC2)Cc2cccnc2)cc1,–,inconclusive: -1.44%
